Reference: PubChem BioAssay AID504791 (Drosophila RNAi Screening Center, 2011)

- Screen: 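Factors in Argonaute-based small RNA production and activity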 (primary screen)
- Cells: Drosophila S2-derived reporter cells
- Knock-down reagent: long dsRNA against Drosophila genes, about 150-250 ng dsRNA per well (siRNA assay); about 80-120 ng (miRNA assay)
- Duration: about 5 days (siRNA assay); about 4 days (miRNA assay)
- Challenge: copper sulfate induction of reporters: 25 µM (siRNA assay); 200 mM stated (miRNA assay), 1-2 days before reading
- Read-out: 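Dual luciferase assay: Renilla to firefly signal ratio in each well, scaled to the mean ratio of its plate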
- Scale: siRNA reporter hit score: higher = 3 marks a strong hit with raised ratio; -3 a strong hit with lowered ratio
- Hit rule: 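a well was a first-pass pick when its plate-scaled ratio rose above 1.5 (siRNA assay) or 1.6 (miRNA assay), or dropped below 0.6; a gene counted only if two separate dsRNAs agreed on retest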
The deposit covers about 23,000 reagents; shown is an unselected part of those with a known target gene and a result. In the full data, 199 (0.86%) got an active call. 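Plate-scaled ratios behind the calls are not deposited; printed light signals are raw; many rows marked increased or decreased are still called inactive.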 No sequences are given here.

target | dsRNA | siRNA reporter hit score | stable siRNA reporter change | miRNA reporter change | stable assay Renilla, run 1 (luminescence) | stable assay firefly, run 1 (luminescence) | outcome
CG3610 | DRSC15502 | – | – | – | 6800 | 3.44e5 | inactive
CG14417 | DRSC18638 | – | – | – | 7003 | 4.63e5 | inactive
CR16735 | DRSC15144 | – | – | – | 6627 | 5.02e5 | inactive
Lrt | DRSC06045 | – | – | – | 5523 | 4.00e5 | inactive
E(spl)malpha-BFM | DRSC16994 | – | – | – | 5847 | 2.81e5 | inactive
Bap60 | DRSC19337 | – | reporter ratio lowered past the hit cutoff | reporter ratio lowered past the hit cutoff | 6363 | 8.57e5 | active
Rgk2 | DRSC06503 | – | – | – | 6858 | 3.08e5 | inactive
Rgk2 | DRSC21651 | – | – | – | 8377 | 4.65e5 | inactive
CG18234 | DRSC10309 | – | – | – | 6656 | 3.33e5 | inactive
Actn3 | DRSC14106 | – | – | – | 5984 | 3.90e5 | inactive
naz | DRSC14790 | – | – | – | 7279 | 3.11e5 | inactive
naz | DRSC16199 | – | – | – | 6320 | 3.44e5 | inactive
wal | DRSC07717 | – | – | – | 8671 | 4.17e5 | inactive
CG12836 | DRSC06182 | – | – | – | 6891 | 4.79e5 | inactive
AP-1gamma | DRSC18433 | – | – | – | 4855 | 3.86e5 | inactive
Egfr | DRSC03871 | – | – | – | 5278 | 3.08e5 | inactive
Egfr | DRSC04613 | – | – | – | 11186 | 1.01e6 | inactive
CG6432 | DRSC16039 | – | – | – | 8622 | 2.97e5 | inactive
mRpL27 | DRSC22568 | – | – | – | 4536 | 4.36e5 | inactive
CG5515 | DRSC15825 | – | – | – | 10826 | 4.29e5 | inactive
mei-S332 | DRSC04704 | – | – | – | 6758 | 6.92e5 | inactive
Got2 | DRSC00643 | – | – | – | 47959 | 8.35e5 | inactive
CG2291 | DRSC06836 | – | – | – | 8023 | 5.93e5 | inactive
ems | DRSC16941 | – | – | – | 7406 | 3.67e5 | inactive
mthl4 | DRSC06998 | – | – | – | 5816 | 3.34e5 | inactive
Or85e (retired record) | DRSC16768 | – | – | – | 7633 | 5.23e5 | inactive
cyc | DRSC11337 | – | – | – | 6858 | 4.38e5 | inactive
CG10352 | DRSC19353 | – | – | – | 6326 | 5.85e5 | inactive
CG6733 | DRSC16103 | – | – | – | 8150 | 4.62e5 | inactive
AsnRS-m | DRSC07010 | – | – | – | 6136 | 3.15e5 | inactive
eEF1gamma | DRSC16659 | – | – | – | 7927 | 4.24e5 | inactive
CG17195 | DRSC15188 | – | – | – | 7551 | 3.25e5 | inactive
CG9705 | DRSC11094 | – | – | – | 8516 | 3.39e5 | inactive
Adk3 | DRSC05917 | – | – | – | 30369 | 1.60e6 | inactive
cad | DRSC03502 | – | – | – | 6335 | 8.73e5 | inactive
cad | DRSC23193 | – | – | – | 4167 | 3.56e5 | inactive
Taf10b | DRSC00792 | – | – | – | 8043 | 5.72e5 | inactive
CG10171 | DRSC09711 | – | – | – | 8262 | 5.62e5 | inactive
Arp5 | DRSC16350 | – | – | – | 9539 | 4.05e5 | inactive
CG1896 | DRSC15397 | – | – | – | 7579 | 4.94e5 | inactive
Mp | DRSC10193 | – | – | – | 3555 | 3.72e5 | inactive
Mp | DRSC11029 | – | – | – | 6410 | 4.02e5 | inactive
Mp | DRSC11030 | – | – | – | 6387 | 4.34e5 | inactive
CG3587 | DRSC18541 | – | – | – | 4632 | 4.91e5 | inactive
CG3587 | DRSC21966 | – | – | – | 10310 | 5.51e5 | inactive
Rpn12R | DRSC09842 | – | – | – | 7563 | 4.73e5 | inactive
Obp46a | DRSC06220 | – | – | – | 7103 | 4.25e5 | inactive
CG10949 | DRSC02112 | – | – | – | 9899 | 1.99e6 | inactive
Sur-8 | DRSC15794 | – | – | – | 6264 | 3.66e5 | inactive
ppk16 | DRSC02736 | – | – | – | 7892 | 3.64e5 | inactive
CG13856 | DRSC14706 | – | – | – | 6635 | 3.66e5 | inactive
CG5327 | DRSC06930 | – | – | – | 6348 | 3.25e5 | inactive
CG13244 | DRSC21642 | – | – | – | 8538 | 4.14e5 | inactive
Ir94c | DRSC13539 | – | – | – | 4907 | 4.61e5 | inactive
CG14036 | DRSC02361 | – | – | – | 7491 | 4.04e5 | inactive
CG15628 | DRSC00256 | 3 | – | – | 4200 | 2.18e5 | inactive
CG15628 | DRSC00463 | – | – | – | 8303 | 4.69e5 | inactive
TotX | DRSC22206 | – | reporter ratio raised past the hit cutoff | – | 9517 | 2.89e5 | inactive
Obp57a | DRSC22047 | – | – | – | 7917 | 4.53e5 | inactive
RpL37A | DRSC02899 | – | – | – | 10098 | 3.69e5 | inactive
CG4630 | DRSC06874 | – | – | – | 8310 | 5.91e5 | inactive
Mps1 | DRSC16273 | – | – | – | 11139 | 3.96e5 | inactive
Sprn | DRSC10132 | – | – | – | 6108 | 4.06e5 | inactive
RhoGEF2 | DRSC07531 | – | – | – | 8317 | 2.73e5 | inactive
RhoGEF2 | DRSC29373 | – | – | reporter ratio raised past the hit cutoff | – | – | inactive
CG17982 | DRSC18143 | – | – | – | 6207 | 3.55e5 | inactive
CatB | DRSC03194 | – | – | – | 6806 | 8.56e5 | inactive
CG11279 | DRSC09837 | – | – | – | 5891 | 4.80e5 | inactive
CG15347 | DRSC18031 | – | – | – | 6194 | 3.09e5 | inactive
CG8945 | DRSC20129 | – | – | – | 3316 | 2.21e5 | inactive
CG8945 | DRSC20130 | – | – | – | 3827 | 2.56e5 | inactive
Dpp10 | DRSC00942 | – | – | – | 5255 | 4.29e5 | inactive
Dpp10 | DRSC02139 | – | – | – | 6995 | 4.11e5 | inactive
reb | DRSC06308 | – | – | – | 5399 | 3.12e5 | inactive
CG2059 | DRSC18203 | – | – | – | 5974 | 3.51e5 | inactive
CG31908 | DRSC21864 | – | – | – | 10070 | 6.13e5 | inactive
CG31908 | DRSC23243 | – | reporter ratio lowered past the hit cutoff | – | 2607 | 3.25e5 | inactive
CG4229 | DRSC10407 | – | – | – | 10150 | 5.58e5 | inactive
Muc55B | DRSC21440 | – | – | – | 10365 | 5.79e5 | inactive
CG13606 | DRSC14609 | – | – | – | 6666 | 3.69e5 | inactive
PheRS-m | DRSC05915 | – | – | – | 8115 | 4.65e5 | inactive
CG5877 | DRSC19963 | – | – | – | 8198 | 4.76e5 | inactive
Dhc98D | DRSC16645 | – | – | – | 6083 | 3.59e5 | inactive

A run of entries taken from the entries so far, as a working copy:
target | dsRNA | siRNA reporter hit score | stable siRNA reporter change | miRNA reporter change | stable assay Renilla, run 1 (luminescence) | stable assay firefly, run 1 (luminescence) | outcome
Obp46a | DRSC06220 | – | – | – | 7103 | 4.25e5 | inactive
CG10949 | DRSC02112 | – | – | – | 9899 | 1.99e6 | inactive
Sur-8 | DRSC15794 | – | – | – | 6264 | 3.66e5 | inactive
ppk16 | DRSC02736 | – | – | – | 7892 | 3.64e5 | inactive
CG13856 | DRSC14706 | – | – | – | 6635 | 3.66e5 | inactive
CG5327 | DRSC06930 | – | – | – | 6348 | 3.25e5 | inactive
CG13244 | DRSC21642 | – | – | – | 8538 | 4.14e5 | inactive
Ir94c | DRSC13539 | – | – | – | 4907 | 4.61e5 | inactive
CG14036 | DRSC02361 | – | – | – | 7491 | 4.04e5 | inactive
CG15628 | DRSC00256 | 3 | – | – | 4200 | 2.18e5 | inactive
CG15628 | DRSC00463 | – | – | – | 8303 | 4.69e5 | inactive
TotX | DRSC22206 | – | reporter ratio raised past the hit cutoff | – | 9517 | 2.89e5 | inactive
